Where a name gives a salt, the structure may show the parent alone. ± gives the standard deviation of the averaged measurements. The list shows a part of the results. Repeats in this data set agree poorly, so a single value says little.
System: A549
Assay: surface PD-L1 immunofluorescence intensity relative to IFN-gamma-only control (ratio); higher = more PD-L1 expression
Conditions: 10 µM; exposure time 24 h; IFN-gamma 100 ng/mL

Compound | surface PD-L1 immunofluorescence intensity
COC1CCN(C(=O)c2cc(Cc3n[nH]c(=O)c4ccccc34)ccc2F)CC1 | 1.01
C=C(C)[C@@H](CC=C(C)C)C[C@@]12C[C@@H](CC=C(C)C)C(C)(C)[C@@](CC=C(C)C)(C(=O)C(C(=O)c3ccc(O)c(O)c3)=C1O)C2=O [Garcinol] | 1.1
C[N+](C)(C)[C@@H](Cc1c[nH]c(=S)[nH]1)C(=O)[O-] [L-Ergothioneine] | 0.972
Cn1cc(-c2ccncc2)c(-c2ccc(OCc3ccc4ccccc4n3)cc2)n1 | 1.02
O=C(O)[C@H]1O[C@@H](Oc2cc3oc(-c4ccccc4)cc(=O)c3c(O)c2O)[C@H](O)[C@@H](O)[C@@H]1O [Baicalin] | 1.02
Nc1ccc(S(=O)(=O)Nc2ccccn2)cc1 [Sulfapyridine] | 0.98
O=S1(=O)c2cccc3cccc(c23)N1CCCN1CCN(c2ccc(F)cc2)CC1 [Fananserin] | 1.01
Nc1ncnc2c1ncn2C1CCCO1 (centres undefined) | 1.11
CN(C)CCCN1c2ccccc2Sc2ccc(Cl)cc21 [Chlorpromazine hydrochloride] | 0.802
CCOc1ccccc1OC(c1ccccc1)C1CNCCO1 (centres undefined) [Reboxetine mesylate] | 0.977 ± 0.024
O=c1[nH]cnc2c1ncn2[C@@H]1O[C@H](CO)[C@@H](O)[C@H]1O [Inosine] | 1.05
CCCCOc1cc(CC2CNC(=O)N2)ccc1OC (centres undefined) | 0.937
O=C1NC(=O)/C(=C/c2ccc3c(c2)OC(F)(F)O3)S1 | 1.06
O=C(O)c1c(Sc2ccccc2)c2cc(Cl)ccc2n1Cc1ccc(Cl)cc1 | 0.938
CCN(CCO)CCCC(C)Nc1ccnc2cc(Cl)ccc12 (centres undefined) [Hydroxychloroquine sulfate] | 1
CCN(CCO)CCCC(C)Nc1ccnc2cc(Cl)ccc12 (centres undefined) [Hydroxychloroquine] | 1.03
Cc1nc(Nc2ncc(C(=O)Nc3c(C)cccc3Cl)s2)cc(N2CCN(CCO)CC2)n1 | 1.1
CCOC(=O)c1c(CSc2ccccc2)n(C)c2cc(Br)c(O)c(CN(C)C)c12 [Arbidol HCl] | 1.03
O=C1C=CC(=O)C2=C1C1c3ccccc3C2c2ccccc21 | 1.01
Cc1nc(-c2ccc(OCC(C)C)c(C#N)c2)sc1C(=O)O [Febuxostat (Uloric)] | 1.12
C[C@@H](O)[C@H]1C(=O)N2C(C(=O)[O-])=C(SC3Cn4cnc[n+]4C3)[C@H](C)[C@H]12 (some centres undefined) [Biapenem] | 0.921
CC(=O)[C@H]1CC[C@H]2[C@@H]3CC=C4C[C@@H](O)CC[C@]4(C)[C@H]3CC[C@]12C [Pregnenolone] | 1.03 ± 0.05
Oc1cc2c(cc1O)[C@@H]1c3ccc(O)c(O)c3OC[C@]1(O)C2 [Hematoxylin (Hydroxybrazilin)] | 0.943
CC(C(=O)O)c1ccc2c(c1)CC(=O)c1ccccc1S2 (centres undefined) [Zaltoprofen] | 0.987
Cc1ccc2c(=O)c3cccc(CC(=O)O)c3oc2c1C | 0.92
CC(C)(C)c1ccc(C(O)CCCN2CCC(C(O)(c3ccccc3)c3ccccc3)CC2)cc1 (centres undefined) [Terfenadine] | 0.926
CC(COc1ccccc1)NC(C)C(O)c1ccc(O)cc1 (centres undefined) [Isoxsuprine hydrochloride] | 0.935

Two entries picked at random from those above:
Compound | surface PD-L1 immunofluorescence intensity
Cc1nc(-c2ccc(OCC(C)C)c(C#N)c2)sc1C(=O)O [Febuxostat (Uloric)] | 1.12
O=C(O)c1c(Sc2ccccc2)c2cc(Cl)ccc2n1Cc1ccc(Cl)cc1 | 0.938

Later entries.

Compound | surface PD-L1 immunofluorescence intensity
CCCCN1CCCCC1C(=O)Nc1c(C)cccc1C (centres undefined) [Bupivacaine hydrochloride] | 0.987
CCOC(=O)NNc1nncc2ccccc12 [Todralazine hydrochloride] | 0.917
C=C1C(=O)O[C@@H](CCC)[C@@H]1C(=O)O [Butyrolactone 3] | 1.07
CC[N+](CC)(CC)CC(=O)Nc1c(C)cccc1C [QX 314 bromide] | 1.06
CC[N+](CC)(CC)CC(=O)Nc1c(C)cccc1C [QX 314 chloride] | 0.999
CC[N+](CC)(CC)CC(=O)Nc1c(C)cccc1C [QX-314 bromide] | 0.95
c1ccc(COCCCc2c[nH]cn2)cc1 [Proxyfan Oxalate] | 1.05
COc1cc(-c2ccc(=O)[nH]n2)ccc1OC(F)F [Zardaverine] | 1.06 ± 0.062
CCCCC1(COC(=O)CCC(=O)O)C(=O)N(c2ccccc2)N(c2ccccc2)C1=O [Suxibuzone] | 0.975
CCCCNc1c(C(=O)OCC)c(C)nc2c1cnn2CC [Tracazolate hydrochloride] | 1.03 ± 0.02
CN(C)[C@@H]1C(O)=C(C(N)=O)C(=O)[C@@]2(O)C(O)=C3C(=O)c4c(O)cccc4[C@@](C)(O)[C@H]3[C@H](O)[C@@H]12 [Oxytetracycline (Terramycin)] | 0.895
CN(C)[C@@H]1C(O)=C(C(N)=O)C(=O)[C@@]2(O)C(O)=C3C(=O)c4c(O)cccc4[C@@](C)(O)[C@H]3[C@H](O)[C@@H]12 [Oxytetracycline dihydrate] | 1.034 ± 0.0057
OC(CN1CCN(c2cccc(Cl)c2)CC1)C(c1ccccc1)c1ccccc1 (centres undefined) | 1.15
CC/C(=C(/CC)c1ccc(O)cc1)c1ccc(O)cc1 [Diethylstilbestrol] | 1.02
CC1=C(/C=C/C(C)=C/C=C/C(C)=C\C(=O)O)C(C)(C)CCC1 [Isotretinoin] | 0.984
CC1=C(/C=C/C(C)=C/C=C/C(C)=C\C(=O)O)C(C)(C)CCC1 [13-cis Retinoic acid] | 0.932
Cl.N=C(N)NCCC[C@H](N)C(=O)O [L-Arginine HCl] | 0.933
CC(C)(Sc1ccc(CCN(CCCCC2CCCCC2)C(=O)NC2CCCCC2)cc1)C(=O)O | 0.969 ± 0.12
CSc1ccc2c(c1)N(CCC1CCCCN1C)c1ccccc1S2 (centres undefined) [Thioridazine hydrochloride] | 0.83
NC(N)=Nc1nc(CSCC/C(N)=N/S(N)(=O)=O)cs1 [Famotidine] | 0.881
Nc1nc(NC2CC2)c2ncn([C@H]3C=C[C@@H](CO)C3)c2n1 [Abacavir Sulfate] | 1.02
CCN(CC)CCNc1ccc(CO)c2sc3ccccc3c(=O)c12 [Hycanthone] | 1.12
CN(Cc1cnc2nc(N)nc(N)c2n1)c1ccc(C(=O)N[C@@H](CCC(=O)O)C(=O)O)cc1 [Methotrexate] | 0.934
O=C(COc1ccc(Cl)cc1)N1CCN(Cc2ccc3c(c2)OCO3)CC1 [Fipexide hydrochloride] | 0.972
CNC(C)CCC=C(C)C (centres undefined) [Isometheptene mucate] | 0.91
Cc1ccsc1/C=C/C1=NCCCN1C [Morantel tartrate] | 0.883
CCCCCCCCCCCCCCCCOP(=O)([O-])OCC[N+](C)(C)C [Miltefosine (Hexadecylphosphocholine)] | 1.06

For reference, part of the list above:
Compound | surface PD-L1 immunofluorescence intensity
O=C1NC(=O)/C(=C/c2ccc3c(c2)OC(F)(F)O3)S1 | 1.06
O=C(O)c1c(Sc2ccccc2)c2cc(Cl)ccc2n1Cc1ccc(Cl)cc1 | 0.938
CCN(CCO)CCCC(C)Nc1ccnc2cc(Cl)ccc12 (centres undefined) [Hydroxychloroquine sulfate] | 1
CCN(CCO)CCCC(C)Nc1ccnc2cc(Cl)ccc12 (centres undefined) [Hydroxychloroquine] | 1.03

Following part:

Compound | surface PD-L1 immunofluorescence intensity
CC(Cc1ccc(O)c(O)c1)(NN)C(=O)O [(S)-(-)-Carbidopa] | 1.01
CCCn1c(=O)[nH]c2nc(-c3ccc(S(=O)(=O)O)cc3)[nH]c2c1=O | 0.944
COc1cc(C(C)=O)ccc1O [Apocynin (Acetovanillone)] | 0.992
C[C@]12CC[C@@H]3c4ccc(OS(=O)(=O)O)cc4CC[C@H]3[C@@H]1CCC2=O [Estropipate] | 0.95
Cc1ccc(S(=O)(=O)NC(=O)NN2CCCCCC2)cc1 [Tolazamide] | 1.02 ± 0.11
COc1cc2c(CCNC(C)=O)c[nH]c2cc1Cl [6-Chloromelatonin] | 0.904
Cn1cccc1/C=C1\C(=O)NC(=O)c2ccccc21 | 0.96
CN1CCN(c2c(F)cc3c(=O)c(C(=O)O)cn4c3c2OCN4C)CC1 [Marbofloxacin] | 1.04
C[C@H]1[C@H](C)CC[C@]2(C(=O)O)CC[C@]3(C)C(=CC[C@@H]4[C@@]5(C)C[C@@H](O)[C@H](O)[C@@](C)(CO)[C@@H]5CC[C@]43C)[C@H]12 [Asiatic acid] | 1.02 ± 0.093
CCCCCCCCCCCCc1ccc(S(=O)(=O)Nc2nncs2)cc1 | 1.04 ± 0.038
CC1c2ccccc2CN1CC1=NCCN1 (centres undefined) | 1.03
CCN(CC)CCOC(=O)C(c1ccccc1)c1ccccc1 [Adiphenine hydrochloride] | 0.878
CNC(=O)c1ccc(C)c(-n2c(C)cc(OCc3ccc(F)cc3F)c(Br)c2=O)c1 | 1.06
C=CCSCC1Nc2cc(Cl)c(S(N)(=O)=O)cc2S(=O)(=O)N1 (centres undefined) [Althiazide] | 1.07
NC(=O)c1cccc(N)c1 [3-Aminobenzamide] | 1.03
Cc1ccc(-n2nc(C(C)(C)C)cc2NC(=O)Nc2ccc(OCCN3CCOCC3)c3ccccc23)cc1 [BIRB 796 (Doramapimod)] | 1.11
CC(C(=O)O)c1ccc(C(=O)c2ccccc2)s1 (centres undefined) [Tiaprofenic acid] | 1.06
CCCCC[C@H](O)/C=C/C=C\CCCCCCCC(=O)O [13(S)-Hydroxy-9Z,11E-octadecadienoic acid] | 0.934
CC(=O)N(CC(O)CN(C(C)=O)c1c(I)c(C(=O)NCC(O)CO)c(I)c(C(=O)NCC(O)CO)c1I)c1c(I)c(C(=O)NCC(O)CO)c(I)c(C(=O)NCC(O)CO)c1I (centres undefined) [Iodixanol] | 0.957
c1ccc(CN(CC2=NCCN2)c2ccccc2)cc1 [Antazoline hydrochloride] | 0.941
Nc1ncnc2n[nH]c(Nc3ccc(F)cc3)c12 | 0.938
CC[C@H](C)C[C@H](C)CCCCCCCCC(=O)N[C@H]1C[C@@H](O)[C@@H](NCCN)NC(=O)[C@@H]2[C@@H](O)CCN2C(=O)[C@H]([C@H](O)CCN)NC(=O)[C@H]([C@H](O)[C@@H](O)c2ccc(O)cc2)NC(=O)[C@@H]2C[C@@H](O)CN2C(=O)[C@H]([C@@H](C)O)NC1=O [Caspofungin Acetate] | 1.01
CN(C)CC/C=C1/c2ccccc2COc2ccc(CC(=O)O)cc21 [Olopatadine hydrochloride] | 1
c1nc(CC2CCNCC2)c[nH]1 [Immepip dihydrobromide] | 0.94
O=C(O)C1=CCCN(CCON=C(c2ccccc2)c2ccccc2)C1 | 0.997

Reference: the supplement of paper PMC8732350
